Patent US20170362283A1 (UNIVERSITEIT UTRECHT HOLDING B.V., priority 2015, published 2017)
Strings that start with PEPTIDE1 are HELM notation: dots part the residues, brackets hold end groups and non-standard residues.

Assay: general procedure: peptide synthesis; BOP, DiPEA

Substance	step yield (lipidation step) [%]	step yield (late stage modification step) [% yield]
PEPTIDE1{I.[Dhb].[D-Ala_Lan].I.[Dha].L.C.[D-Abu_MeLan].P.G.C.K.[NHC14]}$PEPTIDE1,PEPTIDE1,3:R3-7:R3|PEPTIDE1,PEPTIDE1,8:R3-11:R3$$$V2.0	31	
PEPTIDE1{I.[Dhb].[D-Ala_Lan].I.[Dha].L.C.[D-Abu_MeLan].P.G.C.[AcLys].[NHC12]}$PEPTIDE1,PEPTIDE1,3:R3-7:R3|PEPTIDE1,PEPTIDE1,8:R3-11:R3$$$V2.0	36	
PEPTIDE1{I.[Dhb].[D-Ala_Lan].I.[Dha].L.C.[D-Abu_MeLan].P.G.C.K.[NHFarnesyl]}$PEPTIDE1,PEPTIDE1,3:R3-7:R3|PEPTIDE1,PEPTIDE1,8:R3-11:R3$$$V2.0	45	
Boc-Nisin [1-11]Lys(Boc)-OH		57
PEPTIDE1{I.[Dhb].[D-Ala_Lan].I.[Dha].L.C.[D-Abu_MeLan].P.G.C.K.[NHC10]}$PEPTIDE1,PEPTIDE1,3:R3-7:R3|PEPTIDE1,PEPTIDE1,8:R3-11:R3$$$V2.0	45	
